# Data as given in article PMC7819943, “Rice protein-binding microarrays: a tool to detect cis-acting elements near promoter regions in rice”.
# Chains of the proteins cited; added tags and fusions are not shown.
# UniProt Q0JBA9, entry or part of it: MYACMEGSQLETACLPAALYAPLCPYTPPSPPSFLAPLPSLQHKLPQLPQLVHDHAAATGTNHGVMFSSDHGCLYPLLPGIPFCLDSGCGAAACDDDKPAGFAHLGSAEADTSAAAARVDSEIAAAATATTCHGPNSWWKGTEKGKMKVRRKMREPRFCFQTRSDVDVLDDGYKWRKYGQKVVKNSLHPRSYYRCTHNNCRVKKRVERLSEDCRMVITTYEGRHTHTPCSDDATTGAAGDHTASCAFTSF
# Some of the results follow.
# Molecular target: OsWRKY34 (Oryza sativa, UniProt Q0JBA9 1-250)
# Test: protein-binding microarray (RPBM); PBS, 2% BSA, 51.3 ng/ul salmon testes DNA, 50 uM zinc acetate, 200 nM TF, 25 C, 1 h; high values mean tight binding
# Details: protein: recombinant; tags: N-terminal polyhistidine and DsRed monomer fusion (pET32a); label: CyDye5-dUTP incorporated in the synthesized complementary strand; 3' TTTTT single-stranded linker to array surface; dsDNA, one strand shown
# Method in brief: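 An Axon 4000B scanner gave the binding signal as per-feature fluorescence intensity in arbitrary units. This followed washing of a custom Agilent array that had been incubated for 1 h at 25 °C with 200 nM protein in PBS, 2% BSA, salmon testes DNA and 50 µM zinc acetate. The proteins were transcription factors fused at the N-terminus to polyhistidine and DsRed, expressed in E. coli BL21-CodonPlus and purified on Ni–NTA.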
row,Sequence,binding signal
1,CCAGTTGCTCTTCTCTCTTCTCTTTTATTTCATCGAAACACGGAGTCACCTAGTGCAG,10400 fluorescence intensity (a.u.)
2,TCTCGCCCGCCTATCCGCCATCCCGAAACGCCGCCGCCTCCGGAGTCACCTAGTGCAG,11000 fluorescence intensity (a.u.)
3,CCATATCTTGCTGTTCTGGTCAGGTTGAGTGTAATACACACGGAGTCACCTAGTGCAG,10500 fluorescence intensity (a.u.)
4,GTGTCAGTGCGTTTATTTAGATCTATAATCAGAATCTTTCCGGAGTCACCTAGTGCAG,9470 fluorescence intensity (a.u.)
5,TCTCTCTTTCTCGGCGAGGATTGGCTGTGTGATTAGAGGTCGGAGTCACCTAGTGCAG,8590 fluorescence intensity (a.u.)
6,TTTCTGACGACGAACGCAGCTGAACACAGTTTTTTTTCTTCGGAGTCACCTAGTGCAG,8470 fluorescence intensity (a.u.)
7,GCCTTGTACTCCTTCATTATGGATGCTCCTATTTTTTTTCCGGAGTCACCTAGTGCAG,8110 fluorescence intensity (a.u.)
8,CTTAATTACGTGTTTAGTGCTTTACTTTGAGTTGGTTCAGCGGAGTCACCTAGTGCAG,12100 fluorescence intensity (a.u.)
9,ATCCGATGTGGCACGCTAAAACTTTACACCCCTGAATCTACGGAGTCACCTAGTGCAG,8540 fluorescence intensity (a.u.)
10,CTGCCAACTTTATCTCACTCCTTACCATTACAATAACTGACGGAGTCACCTAGTGCAG,10800 fluorescence intensity (a.u.)
11,CCAGCTAAGTACTCCACAAACTTGCAAACTAAAACACGCACGGAGTCACCTAGTGCAG,8710 fluorescence intensity (a.u.)
12,ACGACCCCTCCAACACATTTCCCTCGCGTCTCGTTGCGATCGGAGTCACCTAGTGCAG,8480 fluorescence intensity (a.u.)
13,CTTCTCTGTTTATAGCTTGTTTCCTTTCAAAGTCCAGTTTCGGAGTCACCTAGTGCAG,9220 fluorescence intensity (a.u.)
14,TTATCTAACTGCTCCTTTAATTTCCTCTTCTCTCTCTCTCCGGAGTCACCTAGTGCAG,8420 fluorescence intensity (a.u.)
15,GGGGAGTAATTTAGTCTTGTGTCGTTTTTGGCTCATTCATCGGAGTCACCTAGTGCAG,9340 fluorescence intensity (a.u.)
16,TTCCCCTTCTCTGTGTCCTCGCTCGCTAATCGCTATAAACCGGAGTCACCTAGTGCAG,8110 fluorescence intensity (a.u.)
17,CCCGGCCGGGTCGATTTTGGCTTCTGCTCTTCTTCTGGATCGGAGTCACCTAGTGCAG,10200 fluorescence intensity (a.u.)
18,ATCTTTCACAAAGGCCAACTCTATCATTGGCTGGCGCCGCCGGAGTCACCTAGTGCAG,8970 fluorescence intensity (a.u.)
19,CGCCACCGTCGGATTTGTTTTGTTTTGAAATTTTATTTTTCGGAGTCACCTAGTGCAG,8940 fluorescence intensity (a.u.)
20,ACTTAGAGTATGTGTTTACAATTTGGATCTTGTATCATCTCGGAGTCACCTAGTGCAG,8200 fluorescence intensity (a.u.)
21,GTGCTCTTTAATTATCACTTTGTGCGCACTTTTCTTTGATCGGAGTCACCTAGTGCAG,8710 fluorescence intensity (a.u.)

row,Sequence,binding signal
1,TGGTGGTGTGCTTGGTCTACTTGGAGGTTTAGGCCACTCTCGGAGTCACCTAGTGCAG,8970 fluorescence intensity (a.u.)
2,CAAACTTCTCACACACACGCTGACGCCTGAGTGCTGACCGCGGAGTCACCTAGTGCAG,8350 fluorescence intensity (a.u.)
3,CCCATAAGGATGGGCCGTATGTCTTTCACAACTTGGCCTGCGGAGTCACCTAGTGCAG,8700 fluorescence intensity (a.u.)
4,ATCTGTGTTCTTCTCTCAACTTTTCCAAACCTCTCGTCTCCGGAGTCACCTAGTGCAG,10800 fluorescence intensity (a.u.)
5,CCTTCACTCCTCTCTCATCTTTTCACCCTTTTTCCACATTCGGAGTCACCTAGTGCAG,9330 fluorescence intensity (a.u.)
6,CGTACGTATCTCTTGTTCTCCTCGCGTCAGCGACCAACGGCGGAGTCACCTAGTGCAG,8490 fluorescence intensity (a.u.)
7,ATAATTATTTGTTTTCAGTCATGTATCTTCATCTTATACACGGAGTCACCTAGTGCAG,8610 fluorescence intensity (a.u.)
8,ATTAGCTTTCTTTCATTTTCTCCCTCTGCGAGCAGAGGAACGGAGTCACCTAGTGCAG,8120 fluorescence intensity (a.u.)
9,GCTTGTTGTGGGCTGTGGACTGGGTGTGTGTGTGTGCTTTCGGAGTCACCTAGTGCAG,9420 fluorescence intensity (a.u.)
10,ATCTCATCCGAAATTTTTGGCTTTTTGCAAATTTTTGTGACGGAGTCACCTAGTGCAG,8430 fluorescence intensity (a.u.)
11,GTGCTTCTGCTCGGGCTCAAAGTCGTCAGCTTTTTCTGTGCGGAGTCACCTAGTGCAG,9650 fluorescence intensity (a.u.)
12,CCTCGATGTACCTCATTCCTACATTATGGCATTCATGTTCCGGAGTCACCTAGTGCAG,12000 fluorescence intensity (a.u.)
13,ATTTTTCATTTATAAATATGTCGTTTCGCTTATTCTACAACGGAGTCACCTAGTGCAG,8710 fluorescence intensity (a.u.)
14,TCAGCCGTCGTAAACTCACCAAACAGAACCCTTATCTCTTCGGAGTCACCTAGTGCAG,9560 fluorescence intensity (a.u.)
15,GCGTTGTGAGTGTTTGCGTTGTACTGTGTAATTTAAAAAACGGAGTCACCTAGTGCAG,8460 fluorescence intensity (a.u.)
16,TCGTCGCCCACTGCCACCGCTGACGTCACCGCACTCTCGCCGGAGTCACCTAGTGCAG,9280 fluorescence intensity (a.u.)
17,CGGCCACCGTTTCTTTTTTTTTTCTTCTTTGCGTCGTCATCGGAGTCACCTAGTGCAG,10200 fluorescence intensity (a.u.)
18,CTATCTGGTGATTTTTAGTCTTACATGGTAACCGATTGACCGGAGTCACCTAGTGCAG,8590 fluorescence intensity (a.u.)
19,GGCGGCGGCGGGGTGGCCTTGGCCGGGTGCCTTGGTGGATCGGAGTCACCTAGTGCAG,10300 fluorescence intensity (a.u.)
20,ATCTACCGCCGCCCACAACTCTCTGCCGCCGCCGTCGTCTCGGAGTCACCTAGTGCAG,13100 fluorescence intensity (a.u.)
21,GTGATATTCATGTGATGGTGGTGTGTTTTGATCTTCCTCTCGGAGTCACCTAGTGCAG,8540 fluorescence intensity (a.u.)

# Look-ups from the entries so far.
# binding signal, CCTCGATGTACCTCATTCCTACATTATGGCATTCATGTTCCGGAGTCACCTAGTGCAG is entered as 12000 fluorescence intensity (a.u.)
# binding signal, GCTTGTTGTGGGCTGTGGACTGGGTGTGTGTGTGTGCTTTCGGAGTCACCTAGTGCAG is entered as 9420 fluorescence intensity (a.u.)
